Drawing on article PMC11224396, this text covers binding for 3 molecules.

Amino acid sequences for entries named in this document (tags omitted).
UniProt Q86U44: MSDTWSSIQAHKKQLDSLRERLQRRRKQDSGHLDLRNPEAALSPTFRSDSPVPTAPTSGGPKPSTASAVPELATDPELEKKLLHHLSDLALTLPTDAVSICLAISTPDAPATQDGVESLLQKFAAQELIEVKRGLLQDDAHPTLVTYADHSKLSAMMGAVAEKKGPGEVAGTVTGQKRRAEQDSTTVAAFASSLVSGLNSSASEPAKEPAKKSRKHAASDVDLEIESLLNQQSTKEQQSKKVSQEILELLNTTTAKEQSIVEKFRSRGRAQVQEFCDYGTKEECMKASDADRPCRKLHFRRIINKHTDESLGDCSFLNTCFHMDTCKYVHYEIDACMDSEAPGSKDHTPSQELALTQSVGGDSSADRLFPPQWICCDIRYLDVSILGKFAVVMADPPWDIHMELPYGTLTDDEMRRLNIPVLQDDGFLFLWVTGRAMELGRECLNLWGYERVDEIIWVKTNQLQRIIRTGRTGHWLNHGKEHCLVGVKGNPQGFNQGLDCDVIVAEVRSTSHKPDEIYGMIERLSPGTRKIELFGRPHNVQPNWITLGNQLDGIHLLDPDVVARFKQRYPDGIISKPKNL
UniProt Q15365: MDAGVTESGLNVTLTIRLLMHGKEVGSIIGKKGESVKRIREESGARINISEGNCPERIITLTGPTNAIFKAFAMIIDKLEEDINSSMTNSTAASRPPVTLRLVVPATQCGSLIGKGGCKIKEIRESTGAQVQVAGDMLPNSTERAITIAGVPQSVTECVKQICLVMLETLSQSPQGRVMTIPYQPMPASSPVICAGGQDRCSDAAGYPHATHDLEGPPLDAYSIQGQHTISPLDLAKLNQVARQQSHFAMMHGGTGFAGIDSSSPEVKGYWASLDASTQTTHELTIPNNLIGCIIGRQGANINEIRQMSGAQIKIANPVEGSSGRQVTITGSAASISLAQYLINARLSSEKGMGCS

No constants are given. Whether binding was seen depends on the method and setting. In cells and extracts the contact can be indirect. Here binding means that the protein was enriched with, or labelled near, the bait; the list need not be complete.

The target of this assay is METTL3 (human (endogenous in EC109)) (UniProt Q86U44). As to the kind of experiment: affinity purification with mass spectrometry; co-immunoprecipitation with anti-METTL3 and anti-METTL14 antibodies from EC109 cells, HPLC-MS identification of the pulled-down proteins, iBAQ values.

Take PCBP1 (from UniProt Q15365 1-356): the binding entry is “binds”.

B1: HNRNPM (protein, UniProt P52272 1-730)
chain: MAAGVEAAAEVAATEIKMEEESGAPGVPSGNGAPGPKGEGERPAQNEKRKEKNIKRGGNRFEPYANPTKRYRAFITNIPFDVKWQSLKDLVKEKVGEVTYVELLMDAEGKSRGCAVVEFKMEESMKKAAEVLNKHSLSGRPLKVKEDPDGEHARRAMQKVMATTGGMGMGPGGPGMITIPPSILNNPNIPNEIIHALQAGRLGSTVFVANLDYKVGWKKLKEVFSMAGVVVRADILEDKDGKSRGIGTVTFEQSIEAVQAISMFNGQLLFDRPMHVKMDERALPKGDFFPPERPQQLPHGLGGIGMGLGPGGQPIDANHLNKGIGMGNIGPAGMGMEGIGFGINKMGGMEGPFGGGMENMGRFGSGMNMGRINEILSNALKRGEIIAKQGGGGGGGSVPGIERMGPGIDRLGGAGMERMGAGLGHGMDRVGSEIERMGLVMDRMGSVERMGSGIERMGPLGLDHMASSIERMGQTMERIGSGVERMGAGMGFGLERMAAPIDRVGQTIERMGSGVERMGPAIERMGLSMERMVPAGMGAGLERMGPVMDRMATGLERMGANNLERMGLERMGANSLERMGLERMGANSLERMGPAMGPALGAGIERMGLAMGGGGGASFDRAIEMERGNFGGSFAGSFGGAGGHAPGVARKACQIFVRNLPFDFTWKMLKDKFNECGHVLYADIKMENGKSKGCGVVKFESPEVAERACRMMNGMKLSGREIDVRIDRNA
As for B1, the binding entry is given as “binds”.

B2: U2AF1 (protein, UniProt Q01081 1-240)
chain: MAEYLASIFGTEKDKVNCSFYFKIGACRHGDRCSRLHNKPTFSQTIALLNIYRNPQNSSQSADGLRCAVSDVEMQEHYDEFFEEVFTEMEEKYGEVEEMNVCDNLGDHLVGNVYVKFRREEDAEKAVIDLNNRWFNGQPIHAELSPVTDFREACCRQYEMGECTRGGFCNFMHLKPISRELRRELYGRRRKKHRSRSRSRERRSRSRDRGRGGGGGGGGGGGGRERDRRRSRDRERSGRF
Take B2: the binding entry is recorded as “binds”.
